Measured values as given in patent publication US20050037949A1, “Mannose binding lectin and uses thereof” (priority 2002, published 2005).
No constants are given. Whether binding was seen depends on the method and setting. Some entries that bind do so weakly or less than the wild type.

Chains of the proteins cited; added tags and fusions are not shown. Residues count along the entry.
UniProt O00187, residues 16-686: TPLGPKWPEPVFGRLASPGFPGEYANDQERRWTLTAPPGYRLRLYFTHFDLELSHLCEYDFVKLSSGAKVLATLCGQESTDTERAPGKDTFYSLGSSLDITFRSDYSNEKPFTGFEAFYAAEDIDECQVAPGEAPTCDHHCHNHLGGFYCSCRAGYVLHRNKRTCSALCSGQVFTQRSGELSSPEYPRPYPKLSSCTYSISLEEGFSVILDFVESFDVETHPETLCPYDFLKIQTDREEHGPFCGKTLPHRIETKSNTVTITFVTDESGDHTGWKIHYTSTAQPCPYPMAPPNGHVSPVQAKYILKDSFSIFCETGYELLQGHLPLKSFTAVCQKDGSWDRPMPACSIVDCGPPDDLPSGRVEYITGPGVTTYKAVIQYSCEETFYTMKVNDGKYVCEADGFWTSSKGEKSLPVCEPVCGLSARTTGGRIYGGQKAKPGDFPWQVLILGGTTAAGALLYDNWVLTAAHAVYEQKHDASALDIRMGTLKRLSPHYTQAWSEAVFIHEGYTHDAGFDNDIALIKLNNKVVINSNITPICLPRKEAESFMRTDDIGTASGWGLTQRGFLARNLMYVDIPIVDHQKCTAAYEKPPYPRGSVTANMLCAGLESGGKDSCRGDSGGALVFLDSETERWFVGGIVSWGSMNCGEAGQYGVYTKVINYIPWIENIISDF
UniProt P11226, residues 21-248: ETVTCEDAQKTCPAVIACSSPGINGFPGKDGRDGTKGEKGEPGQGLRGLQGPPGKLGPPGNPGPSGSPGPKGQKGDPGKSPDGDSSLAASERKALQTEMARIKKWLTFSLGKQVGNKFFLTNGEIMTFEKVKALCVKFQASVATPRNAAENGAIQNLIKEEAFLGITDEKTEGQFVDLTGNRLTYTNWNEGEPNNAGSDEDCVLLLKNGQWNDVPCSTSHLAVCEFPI

Biological target: MBL associated serine protease 2 (MASP2) (human) (UniProt O00187)
Assay: C4 deposition assay on mannan-coated plates with MBL-deficient human serum (recruitment inferred)

binding, binds:
MASP-depleted MBL pool of fractions 8-9 (from UniProt P11226 21-248)
MASP-depleted MBL fraction 3 (from UniProt P11226 21-248)
MASP-depleted MBL fraction 5 (from UniProt P11226 21-248)
MASP-depleted MBL pool of fractions 3-7 (from UniProt P11226 21-248)
